From PMC11570943
No constants are given. Whether binding was seen depends on the method and setting. In cells and extracts the contact can be indirect. Some entries that bind do so weakly or less than the wild type. For some assays here: Where a sequence is shown, tags or fusion partners need not be part of it.

T1: Myc-tagged PPARα (UniProt Q07869)
T1 sequence: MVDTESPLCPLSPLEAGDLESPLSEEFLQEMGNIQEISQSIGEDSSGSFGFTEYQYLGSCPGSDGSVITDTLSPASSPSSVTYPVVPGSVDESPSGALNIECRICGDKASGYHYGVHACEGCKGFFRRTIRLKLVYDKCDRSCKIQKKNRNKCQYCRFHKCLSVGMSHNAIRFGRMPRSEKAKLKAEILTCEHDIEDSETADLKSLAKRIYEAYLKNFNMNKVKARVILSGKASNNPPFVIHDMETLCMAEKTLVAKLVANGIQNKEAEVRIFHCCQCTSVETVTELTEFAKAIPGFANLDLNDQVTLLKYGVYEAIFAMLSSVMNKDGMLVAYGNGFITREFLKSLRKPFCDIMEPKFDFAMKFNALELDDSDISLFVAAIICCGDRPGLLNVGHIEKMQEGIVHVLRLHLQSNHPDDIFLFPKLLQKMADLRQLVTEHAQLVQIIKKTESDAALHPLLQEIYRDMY

T2: Peroxisome proliferator-activated receptor alpha (endogenous, mouse liver) (mouse (endogenous in mouse liver)) (UniProt P23204)
T2 sequence: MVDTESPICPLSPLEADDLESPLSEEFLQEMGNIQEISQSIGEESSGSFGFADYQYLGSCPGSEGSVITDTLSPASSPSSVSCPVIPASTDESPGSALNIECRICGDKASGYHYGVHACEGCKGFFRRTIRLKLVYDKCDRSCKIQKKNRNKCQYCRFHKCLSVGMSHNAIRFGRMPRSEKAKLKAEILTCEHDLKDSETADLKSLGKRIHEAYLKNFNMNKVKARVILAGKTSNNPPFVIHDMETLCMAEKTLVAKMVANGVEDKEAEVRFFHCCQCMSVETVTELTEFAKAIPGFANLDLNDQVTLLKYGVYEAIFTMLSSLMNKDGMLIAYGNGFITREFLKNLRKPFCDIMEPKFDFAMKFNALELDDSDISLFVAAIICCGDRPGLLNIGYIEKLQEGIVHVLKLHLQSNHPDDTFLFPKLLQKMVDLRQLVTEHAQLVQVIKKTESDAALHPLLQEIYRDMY


Columns and labels:
Myc-tagged PPARα = biological target: T1, Myc-tagged PPARα; test: co-IP; exogenous co-IP from HEK293T cells transfected with HA-tagged USP25 and Myc-tagged PPARα; IP lysis buffer, antibody overnight at 4 °C, Protein A/G PLUS-Agarose, Western blot
[1] = biological target: T2, Peroxisome proliferator-activated receptor alpha (endogenous, mouse liver) (mouse (endogenous in mouse liver)); test: co-IP; endogenous co-IP from livers of HFD-fed mice; IP lysis buffer, antibody overnight at 4 °C, Protein A/G PLUS-Agarose, Western blot

| binding (Myc-tagged PPARα) | binding [1] | Molecule |
| --- | --- | --- |
| binds |  | HA-tagged USP25 (from UniProt Q9UHP3 1-1055) (enzyme) |
|  | binds | Ubiquitin-specific peptidase 25 (endogenous, mouse liver) (enzyme, UniProt P57080 1-1055) MTVEQNVLQQSAAQKHQQTFLNQLREITGINDAQILQQALKDSNGNLELAVAFLTAKNAKTPPQEETGYYQTALPGNDRYISVGSQADANVIDLTGDDKDDLQRAIALSLAESNRAFRETGITDEEQAISRVLEASIAENKACLKRTPIEVWRDSRNPYDRKRQEKAPVGLKNVGNTCWFSAVIQSLFNLLEFRRLVLNYKPPSNAQDLPRNQKEHRNLPFMRELRYLFALLVGTKRKYVDPSRAVEILKDAFKSNDSQQQDVSEFTHKLLDWLEDAFQMKAEEETDEEKPKNPMVELFYGRFLAMGVLEGKKFENTEMFGQYPLQVNGFKDLHECLEAAMIEGEIESLHSDNSGKSGQEHWFTELPPVLTFELSRFEFNQALGRPEKIHNKLEFPQVLYLDRYMHRNREITRIKREEIKRLKDYLTVLQQRLERYLSYGSGPKRFPLVDVLQYALEFASSKPVCTSPVDDIDASSSASGPLPSQSLPSTTEQQGPCASDLPGSSSPASGAALPLRSVIHKPFTQSRIPPDLPMHPAPRHITEEELCVLESCLHRWRTEIENDTRDLQESISRIHRTIELMYSDKSMIQVPYRLHAVLVHEGQANAGHYWAYIFDHRESRWMKYNDIAVTKSSWEELVRDSFGGYRNASAYCLMYIDDKAQFLIQEEFNKETGQALVGMETLPPDLRDFVEEDNQRFEKELEEWDTQLAQRSLQEKLLAAPKLREAEASATTAQAGGADYLEQPSRSDLSKHWKEETLRVIAKASHDLEDKGPETVLQSAIKLEYSRLVKLAQEDTPPETDYRLHHVLVYFIQNQAPKKIIEKTLLEQFGDRNLSFDERCHNIMKVAQAKLEMIKPEEVNLEEYEEWHADYKKFRETTMYLITGLENFQRESYIDSLLFLLCAYQNNKELLSKGPYRGHDGELISHYRRECLLKLNEQAAELFESGEDGDVNNGLIIMNEFIVPFLPLLLVDDMEEKDILAVEDMRNRWCSYLGQEMEANLQEKLTDFLPKLLDCSTEIKGFHEPPKLPSYSAHELCERFARIMLSLSRTPADGR |
